Results published in publication PMC5983628.
Construct, isoform or probe ends are uncertain for at least one entry.

The chains behind the UniProt entries cited, without tags or fusion partners. Where a name states a change or a piece, a line headed by the entry shows the natural chain unless it says otherwise.
UniProt P06612: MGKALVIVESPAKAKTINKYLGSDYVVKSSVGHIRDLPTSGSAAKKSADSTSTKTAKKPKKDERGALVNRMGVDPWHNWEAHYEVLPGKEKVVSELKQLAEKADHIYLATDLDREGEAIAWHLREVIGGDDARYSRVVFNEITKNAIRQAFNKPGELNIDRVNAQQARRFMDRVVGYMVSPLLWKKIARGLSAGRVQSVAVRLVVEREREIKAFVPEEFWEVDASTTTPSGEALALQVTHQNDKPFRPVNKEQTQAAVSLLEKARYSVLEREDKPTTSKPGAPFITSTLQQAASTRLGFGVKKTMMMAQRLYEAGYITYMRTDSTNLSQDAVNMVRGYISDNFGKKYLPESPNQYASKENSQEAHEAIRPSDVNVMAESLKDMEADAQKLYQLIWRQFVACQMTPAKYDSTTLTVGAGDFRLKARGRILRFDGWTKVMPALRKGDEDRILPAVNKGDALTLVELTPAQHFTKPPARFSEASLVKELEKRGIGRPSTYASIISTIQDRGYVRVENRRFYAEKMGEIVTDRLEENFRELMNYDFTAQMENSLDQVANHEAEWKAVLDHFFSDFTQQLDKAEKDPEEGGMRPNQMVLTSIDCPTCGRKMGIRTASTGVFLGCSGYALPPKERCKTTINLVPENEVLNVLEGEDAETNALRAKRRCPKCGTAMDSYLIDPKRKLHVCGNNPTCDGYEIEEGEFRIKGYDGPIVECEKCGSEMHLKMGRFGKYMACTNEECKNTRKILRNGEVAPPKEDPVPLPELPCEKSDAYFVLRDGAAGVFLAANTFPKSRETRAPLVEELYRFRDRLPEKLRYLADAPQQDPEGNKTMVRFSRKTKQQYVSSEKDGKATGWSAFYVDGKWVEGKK

Legend:
[1] = biological target: E. coli DNA topoisomerase I, nonacetylated (Escherichia coli) (UniProt P06612); assay: EMSA; details: 5 mM Mg2+, 10 mM EDTA; EMSA: 150 mM Tris-HCl pH 8.0, 1 mg/mL BSA, 10% glycerol, 5 mM MgCl2, 10 mM EDTA, 37 C, 5 min; 6% native PAGE in 0.5x TBE; recombinant protein; label: 5'-32P; folded or branched DNA
[2] = biological target: E. coli DNA topoisomerase I, acetylated by acetyl phosphate (Escherichia coli) (UniProt P06612); assay: EMSA; details: 5 mM Mg2+, 10 mM EDTA, acetyl phosphate-treated enzyme, average over protein:DNA ratios, 3 replicates; EMSA: 150 mM Tris-HCl pH 8.0, 1 mg/mL BSA, 10% glycerol, 5 mM MgCl2, 10 mM EDTA, 37 C, 5 min; 6% native PAGE in 0.5x TBE; recombinant protein; label: 5'-32P; folded or branched DNA; scale: fold decrease in bound fraction vs nonacetylated

GCCCTGAAAGATTATGCAATGCGCTTTGGGCAAACCAAGAGAGCATAATCTTTCAGGGC [59-base oligonucleotide substrate]
binding result [1]: binds | binding signal [2]: 2
